From PMC11381343
Where a chain is given by its changes, count along the chain named. Results are given in words; binding and its absence hold for the method and conditions named. For some of these results: Binding can be weak; no strength is given. Where a sequence is shown, tags or fusion partners need not be part of it.

Experiments:
[1] = target: T1, human RAP1 with a C-terminal Flag-tag (human) (UniProt Q9NYB0); experiment: pull-down; Flag-tagged RAP1 (2 μg) and His-tagged TRF2 (2 μg) in 30 μl buffer P (25 mM Tris-HCl pH 7.5, 10% glycerol, 0.5 mM EDTA, 0.01% Igepal, 1 mM DTT, 150 mM KCl) on ice 30 min; RAP1 captured on anti-Flag M2 resin at 4°C; Western blot for TRF2 and Flag; also at 300 mM KCl; both purified
T1 sequence: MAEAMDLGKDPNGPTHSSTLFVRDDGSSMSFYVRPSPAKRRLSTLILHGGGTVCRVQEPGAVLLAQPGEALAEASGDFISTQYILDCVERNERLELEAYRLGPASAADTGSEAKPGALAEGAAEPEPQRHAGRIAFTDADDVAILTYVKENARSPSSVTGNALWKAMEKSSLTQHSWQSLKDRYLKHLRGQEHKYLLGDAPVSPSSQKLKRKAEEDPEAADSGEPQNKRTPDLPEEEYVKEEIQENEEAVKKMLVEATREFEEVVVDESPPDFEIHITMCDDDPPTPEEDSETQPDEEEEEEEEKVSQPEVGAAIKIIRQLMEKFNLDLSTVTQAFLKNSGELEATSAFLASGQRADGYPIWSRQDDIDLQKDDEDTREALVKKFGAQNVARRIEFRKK

[2] = target: T2, human RAP1 F336R with a C-terminal Flag-tag (human) (UniProt Q9NYB0); experiment: as above
T2 sequence: T1 sequence with F336R

Substance | binding [1] | binding [2]
His-tagged human TRF2 L288R | no binding (tested: 2 μg of each in 30 μl) | 
His-tagged human TRF2 lacking the basic domain (domain or fragment) | binds | 
His-tagged human TRF2, wild type | binds | no binding (tested: 2 μg of each in 30 μl)
